Data reported in patent US20260218135A1 (REGENTS OF THE UNIVERSITY OF COLORADO A BODY CORPORATE, published 2026).
Results are given in words; binding and its absence hold for the method and conditions named. In cells and extracts the contact can be indirect. Some binding calls cover weakened binding; strength is not graded here. For some of these results: Where a sequence is shown, tags or fusion partners need not be part of it.

Protein sequences, listed by entry. Tags and fused reporters are not part of them.
UniProt A6ZKI3: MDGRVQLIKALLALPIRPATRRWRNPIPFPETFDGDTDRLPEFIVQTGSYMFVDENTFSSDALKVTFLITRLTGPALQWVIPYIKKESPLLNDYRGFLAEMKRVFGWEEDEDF

How the values were obtained:
[1] = biological target: T1, HA-PEG10 gag-pol (2x HA-tagged human PEG10, AA1-708) (Homo sapiens) (UniProt Q86TG7); experiment: crosslinking co-immunoprecipitation, IP with FLAG antibody, western blot
T1 sequence (looked up): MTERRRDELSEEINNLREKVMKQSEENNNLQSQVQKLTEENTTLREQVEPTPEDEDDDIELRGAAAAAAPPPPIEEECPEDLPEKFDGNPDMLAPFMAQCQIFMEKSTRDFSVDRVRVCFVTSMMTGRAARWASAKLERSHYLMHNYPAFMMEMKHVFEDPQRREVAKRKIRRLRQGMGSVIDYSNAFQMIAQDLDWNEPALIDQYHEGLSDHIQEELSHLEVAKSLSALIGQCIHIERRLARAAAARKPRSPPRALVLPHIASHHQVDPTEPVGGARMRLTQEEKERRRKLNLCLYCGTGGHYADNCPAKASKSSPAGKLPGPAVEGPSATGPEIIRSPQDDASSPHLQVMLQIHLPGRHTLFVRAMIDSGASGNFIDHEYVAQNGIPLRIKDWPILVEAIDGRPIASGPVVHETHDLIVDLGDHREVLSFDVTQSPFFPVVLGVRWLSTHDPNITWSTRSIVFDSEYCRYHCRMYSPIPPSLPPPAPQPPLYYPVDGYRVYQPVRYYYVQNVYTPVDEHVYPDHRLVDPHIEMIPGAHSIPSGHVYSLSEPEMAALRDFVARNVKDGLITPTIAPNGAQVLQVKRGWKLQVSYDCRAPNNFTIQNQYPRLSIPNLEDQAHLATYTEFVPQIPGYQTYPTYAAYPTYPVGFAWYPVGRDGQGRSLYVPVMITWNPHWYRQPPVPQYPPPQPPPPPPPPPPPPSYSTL

[2] = biological target: T2, HA-capsid^NTD (2x HA-tagged human PEG10, AA1-160) (Homo sapiens) (UniProt Q86TG7); experiment: as above
T2 sequence (looked up): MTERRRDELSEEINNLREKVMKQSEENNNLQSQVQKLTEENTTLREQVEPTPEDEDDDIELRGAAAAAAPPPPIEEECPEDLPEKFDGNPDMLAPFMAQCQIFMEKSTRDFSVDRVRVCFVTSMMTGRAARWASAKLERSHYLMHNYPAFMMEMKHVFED

[3] = biological target: T2, HA-capsid^NTD (2x HA-tagged human PEG10, AA1-160) (Homo sapiens); experiment: crosslinking co-immunoprecipitation, IP with FLAG antibody, western blot (FIG. 3d)
[4] = biological target: T1, HA-PEG10 gag-pol (2x HA-tagged human PEG10, AA1-708) (Homo sapiens); experiment: crosslinking co-immunoprecipitation, IP with HA antibody, HEK293 lysate, western blot
[5] = biological target: HA-PEG10 capsid (37 kDa self-cleavage product of HA-PEG10) (Homo sapiens) (UniProt Q86TG7); experiment: crosslinking co-immunoprecipitation, IP with FLAG antibody, HEK293 lysate, western blot
[6] = biological target: T1, HA-PEG10 gag-pol (2x HA-tagged human PEG10, AA1-708) (Homo sapiens); experiment: as above
[7] = biological target: T3, murine HA-tagged Peg10 (murine) (UniProt Q7TN75); experiment: co-immunoprecipitation of murine or human FLAG-RTL8 with murine HA-tagged Peg10 (FIG. 4e), n=1
T3 sequence (looked up): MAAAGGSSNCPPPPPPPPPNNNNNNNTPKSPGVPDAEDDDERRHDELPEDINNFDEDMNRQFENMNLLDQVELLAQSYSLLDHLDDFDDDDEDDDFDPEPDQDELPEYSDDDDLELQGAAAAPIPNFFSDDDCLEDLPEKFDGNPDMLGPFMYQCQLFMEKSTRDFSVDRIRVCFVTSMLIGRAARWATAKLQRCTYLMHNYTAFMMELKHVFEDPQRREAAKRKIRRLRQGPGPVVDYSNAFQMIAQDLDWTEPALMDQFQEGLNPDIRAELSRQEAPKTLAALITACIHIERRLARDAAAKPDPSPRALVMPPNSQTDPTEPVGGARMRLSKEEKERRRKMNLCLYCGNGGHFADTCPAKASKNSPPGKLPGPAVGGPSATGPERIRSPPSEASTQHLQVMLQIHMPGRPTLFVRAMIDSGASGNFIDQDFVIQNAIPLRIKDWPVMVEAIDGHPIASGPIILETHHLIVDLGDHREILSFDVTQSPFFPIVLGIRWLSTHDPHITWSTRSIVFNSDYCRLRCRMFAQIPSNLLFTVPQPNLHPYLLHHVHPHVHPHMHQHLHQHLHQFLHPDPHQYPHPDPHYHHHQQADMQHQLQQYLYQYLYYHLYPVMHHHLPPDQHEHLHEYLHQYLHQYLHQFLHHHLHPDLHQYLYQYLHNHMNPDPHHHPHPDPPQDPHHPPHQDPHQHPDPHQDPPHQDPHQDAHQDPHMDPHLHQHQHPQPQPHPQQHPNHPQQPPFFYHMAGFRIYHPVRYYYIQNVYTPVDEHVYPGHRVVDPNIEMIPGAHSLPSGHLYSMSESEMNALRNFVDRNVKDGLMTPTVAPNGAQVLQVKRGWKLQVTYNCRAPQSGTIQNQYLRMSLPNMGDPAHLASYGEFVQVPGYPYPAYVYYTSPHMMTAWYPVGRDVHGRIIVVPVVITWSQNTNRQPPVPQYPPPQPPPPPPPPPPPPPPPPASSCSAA

Measured: binding

FLAG-HsRTL8c-3'UTR (3x FLAG-tagged human RTL8c, AA1-113) (from UniProt A6ZKI3 1-113)
binds: all assays above
